Experimental data reported in publication PMC5484111, “Isolation, Amino Acid Sequences, and Plausible Functions of the Galacturonic Acid-Binding Egg Lectin of the Sea Hare Aplysia kurodai” (Marine Drugs, 2017).
Converted amounts (≈) assume the structure as drawn.

System: T1, AKL (Aplysia kurodai lectin)
T1 construct: gene AKL-a; inseparable isolectin mixture; 18-residue signal removed, mature 218 or 219 residues, N-glycosylated; N-termini SGDQAMCDVI, NQDQAMCDVI; cDNAs from albumen gland of a different individual, some N-terminal residues differ
Assay: inhibition of hemagglutination of rabbit erythrocytes
Format: cell-based
Details: minimum concentration inhibiting hemagglutination, titer 8, pH 8.0, 37 °C, methods say diluted extract, results say AKL

Row | Structure (SMILES) | minimum inhibitory concentration (no inhibition at highest concentration tested) [mM] | minimum inhibitory concentration [mM]
1 | OC[C@H]1OC(O)[C@H](O)[C@@H](O)[C@H]1O (stereo partly drawn) [D-galactose] | > 100 | –
2 | OC1OC[C@@H](O)[C@H](O)[C@H]1O (stereo partly drawn) [D-xylose] | – | 6.25 (≈ 938 µg/mL)
3 | O=C(O)[C@H]1OC(O)[C@H](O)[C@@H](O)[C@H]1O (stereo partly drawn) [GalU, D-galacturonic acid] | – | 0.013 (≈ 2.52 µg/mL)
